In PubChem BioAssay AID1671190 (National Center for Advancing Translational Sciences (NCATS), 2021):
Hit rate of the full screen: of about 580,000 compounds, about 6,100 (1.1%) were called active. Inconclusive means that the source gave no clear call. Such entries were picked first, then a sample of the others. Calls follow the shape of the dose curve; as a rule, active = well fitted inhibition curve with a large enough effect; inconclusive = small, poorly fitted or top-dose-only effect, or another doubt; inactive = no such curve, though single readings can be large or run the other way. Where the call is inconclusive, the potency comes from a doubtful curve fit.

Sequences of proteins named here, by UniProt entry; tags and fusion partners are left off. A change or cut given only in a name is not applied to a line headed by its entry.
UniProt P18054: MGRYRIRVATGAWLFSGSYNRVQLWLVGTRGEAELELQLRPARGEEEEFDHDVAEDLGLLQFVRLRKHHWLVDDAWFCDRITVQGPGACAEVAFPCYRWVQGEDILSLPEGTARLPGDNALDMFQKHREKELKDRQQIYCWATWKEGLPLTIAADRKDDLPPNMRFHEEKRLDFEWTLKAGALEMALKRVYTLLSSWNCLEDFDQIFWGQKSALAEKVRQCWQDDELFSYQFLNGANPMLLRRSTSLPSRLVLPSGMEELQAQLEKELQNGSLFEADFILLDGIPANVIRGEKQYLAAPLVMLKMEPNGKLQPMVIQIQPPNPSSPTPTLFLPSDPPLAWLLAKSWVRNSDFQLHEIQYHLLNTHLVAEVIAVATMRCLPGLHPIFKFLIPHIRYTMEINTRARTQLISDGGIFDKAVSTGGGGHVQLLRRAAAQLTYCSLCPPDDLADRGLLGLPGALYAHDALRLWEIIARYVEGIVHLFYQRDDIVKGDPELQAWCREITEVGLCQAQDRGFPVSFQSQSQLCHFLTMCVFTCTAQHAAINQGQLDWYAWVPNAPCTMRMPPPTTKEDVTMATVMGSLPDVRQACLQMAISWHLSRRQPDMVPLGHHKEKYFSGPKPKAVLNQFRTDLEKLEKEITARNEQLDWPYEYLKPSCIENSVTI

target: Polyunsaturated fatty acid lipoxygenase ALOX12 (Homo sapiens) (UniProt P18054); assay: Primary qHTS assay for inhibitors of human arachidonate 12S-lipoxygenase (ALOX12): Round 2; conditions: purified 12hLO, xylenol orange hydroperoxide absorbance; activity change, negative = inhibition: at 108 µM (top of the series) unless noted
Method in brief: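 Purified human 12hLO (150 nM final) in 25 mM Hepes, 0.01% Triton X-100, pH 7.0 was preincubated 15 min at room temperature with compound. Then 40 uM arachidonic acid was added, 30 min. Hydroperoxide was read by Fe-XO absorbance ratio 573/405 nm.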
% is scaled to controls: 0 for no effect and ±100 for the full control effect; potency is read from the fitted curve at half-maximal effect.

| Compound | activity change, negative = inhibition | Potency |
| --- | --- | --- |
| CCN1CCN(c2ncc(C(=O)OC)c3ccccc23)CC1 | inactive: -26.6% |  |
| COc1ccc(S(=O)(=O)N(C)C[C@H]2Oc3ccc(NS(=O)(=O)c4cn(C)cn4)cc3C(=O)N([C@H](C)CO)C[C@@H]2C)cc1 |  | inconclusive: 35.5 µM [inhibitor, partial curve, poor fit] |
| CCN1CCN(C(=O)C(NS(=O)(=O)c2ccc3nc(C)sc3c2)C(C)C)CC1 (stereo not drawn) | inactive: -5.77% |  |
| CCOC(=O)[C@]12CCCC=C1N(Cc1ccccc1)C(=O)[C@H](CC(=O)NCCCCc1ccccc1)C2 | inactive: -11.3% |  |
| CC(C)Oc1ccc(/C(O)=C2/C(=O)C(=O)N(Cc3cccnc3)C2c2ccco2)cc1 (stereo not drawn) |  | inconclusive: 0.316 µM [inhibitor, full curve, poor fit] |
| CC(C)(C)NC(=O)NC(=O)Cn1nc(C(=O)O)c2ccccc2c1=O |  | inconclusive: 31.6 µM [inhibitor, single point] |
| Cn1cc(/C=C2/CC(=O)N(c3ccccc3)C2=O)c2ccccc21 |  | inconclusive: 50.1 µM [inhibitor, partial curve, poor fit] |
| Cc1cccc(NC(=O)c2cc(S(=O)(=O)N3CCN(c4ccccc4F)CC3)ccc2F)c1C | inactive: -33.9% |  |
| Clc1ccc(-c2nnc(-c3ccccc3Cl)o2)cc1 | inactive: -0.6% |  |
| C[C@@H]1CN([C@H](C)CO)C(=O)CCCn2nncc2CO[C@H]1CN(C)S(=O)(=O)c1ccc(Oc2ccccc2)nc1 |  | inconclusive: 126 µM [inhibitor, single point] |
| O=C(CSc1nnnn1-c1ccc(Cl)cc1)N1CCc2ccccc2C1 |  | inconclusive: 31.6 µM [inhibitor, full curve, poor fit] |
| O=C(O)CNS(=O)(=O)c1ccccc1C(F)(F)F |  | inconclusive: 89.1 µM [inhibitor, single point] |
| CCN(CC1CCOC1)C(=O)c1nn(C(C)C)c(=O)c2ccccc12 (stereo not drawn) |  | inconclusive: 35.5 µM [inhibitor, partial curve, poor fit] |
| COc1ccccc1CNc1nc(-c2ccccc2CO)c2sccc2n1 |  | inconclusive: 50.1 µM [inhibitor, partial curve, poor fit] |
| Cc1cccc2cc(CN(Cc3ccccc3)C(=O)C(C)C)c(=O)[nH]c12 | inactive: 26.3% |  |
| Cc1cc2nc3n(c(=O)c2n1CC(=O)Nc1cc(F)cc(F)c1)CCCC3 |  | inconclusive: 50.1 µM [inhibitor, partial curve, poor fit] |
| COc1ccc(/C=N\NC(=O)c2ccccc2Br)cc1COc1ccc(F)cc1 | inactive: -56% |  |
| CCC1CN(CCNC(=O)c2cc(C(C)C)nn2C)Cc2cc(OC)ccc2O1 (stereo not drawn) | inactive: 4.17% |  |

Grouped by structure, the compounds so far with two or more sulfur atoms (2)

| Compound | activity change, negative = inhibition | Potency |
| --- | --- | --- |
| COc1ccc(S(=O)(=O)N(C)C[C@H]2Oc3ccc(NS(=O)(=O)c4cn(C)cn4)cc3C(=O)N([C@H](C)CO)C[C@@H]2C)cc1 |  | inconclusive: 35.5 µM [inhibitor, partial curve, poor fit] |
| CCN1CCN(C(=O)C(NS(=O)(=O)c2ccc3nc(C)sc3c2)C(C)C)CC1 (stereo not drawn) | inactive: -5.77% |  |
